Reference: PubChem BioAssay AID2662 (National Center for Advancing Translational Sciences (NCATS), 2010)
In all, about 290,000 compounds went through this assay and about 110 (0.038%) were called active. Inconclusive means that the source gave no clear call. Such entries were picked first, then a sample of the others. Calls follow the shape of the dose curve; as a rule, active = well fitted inhibition curve with a large enough effect in the polarisation, with a control signal flat (not every such curve was filed as active); inconclusive = small, poorly fitted or top-dose-only effect, or effect the other way, or a change in a side signal; inactive = no such curve, though single readings can be large or run the other way; the % refers to the polarisation. Where the call is inconclusive, the potency comes from a doubtful curve fit. “Side channel” marks fits to a control or component signal instead of the main read-out.

Protein sequences, listed by entry. Tags and fused reporters are not part of them.
UniProt Q03164, whole entry, looked up: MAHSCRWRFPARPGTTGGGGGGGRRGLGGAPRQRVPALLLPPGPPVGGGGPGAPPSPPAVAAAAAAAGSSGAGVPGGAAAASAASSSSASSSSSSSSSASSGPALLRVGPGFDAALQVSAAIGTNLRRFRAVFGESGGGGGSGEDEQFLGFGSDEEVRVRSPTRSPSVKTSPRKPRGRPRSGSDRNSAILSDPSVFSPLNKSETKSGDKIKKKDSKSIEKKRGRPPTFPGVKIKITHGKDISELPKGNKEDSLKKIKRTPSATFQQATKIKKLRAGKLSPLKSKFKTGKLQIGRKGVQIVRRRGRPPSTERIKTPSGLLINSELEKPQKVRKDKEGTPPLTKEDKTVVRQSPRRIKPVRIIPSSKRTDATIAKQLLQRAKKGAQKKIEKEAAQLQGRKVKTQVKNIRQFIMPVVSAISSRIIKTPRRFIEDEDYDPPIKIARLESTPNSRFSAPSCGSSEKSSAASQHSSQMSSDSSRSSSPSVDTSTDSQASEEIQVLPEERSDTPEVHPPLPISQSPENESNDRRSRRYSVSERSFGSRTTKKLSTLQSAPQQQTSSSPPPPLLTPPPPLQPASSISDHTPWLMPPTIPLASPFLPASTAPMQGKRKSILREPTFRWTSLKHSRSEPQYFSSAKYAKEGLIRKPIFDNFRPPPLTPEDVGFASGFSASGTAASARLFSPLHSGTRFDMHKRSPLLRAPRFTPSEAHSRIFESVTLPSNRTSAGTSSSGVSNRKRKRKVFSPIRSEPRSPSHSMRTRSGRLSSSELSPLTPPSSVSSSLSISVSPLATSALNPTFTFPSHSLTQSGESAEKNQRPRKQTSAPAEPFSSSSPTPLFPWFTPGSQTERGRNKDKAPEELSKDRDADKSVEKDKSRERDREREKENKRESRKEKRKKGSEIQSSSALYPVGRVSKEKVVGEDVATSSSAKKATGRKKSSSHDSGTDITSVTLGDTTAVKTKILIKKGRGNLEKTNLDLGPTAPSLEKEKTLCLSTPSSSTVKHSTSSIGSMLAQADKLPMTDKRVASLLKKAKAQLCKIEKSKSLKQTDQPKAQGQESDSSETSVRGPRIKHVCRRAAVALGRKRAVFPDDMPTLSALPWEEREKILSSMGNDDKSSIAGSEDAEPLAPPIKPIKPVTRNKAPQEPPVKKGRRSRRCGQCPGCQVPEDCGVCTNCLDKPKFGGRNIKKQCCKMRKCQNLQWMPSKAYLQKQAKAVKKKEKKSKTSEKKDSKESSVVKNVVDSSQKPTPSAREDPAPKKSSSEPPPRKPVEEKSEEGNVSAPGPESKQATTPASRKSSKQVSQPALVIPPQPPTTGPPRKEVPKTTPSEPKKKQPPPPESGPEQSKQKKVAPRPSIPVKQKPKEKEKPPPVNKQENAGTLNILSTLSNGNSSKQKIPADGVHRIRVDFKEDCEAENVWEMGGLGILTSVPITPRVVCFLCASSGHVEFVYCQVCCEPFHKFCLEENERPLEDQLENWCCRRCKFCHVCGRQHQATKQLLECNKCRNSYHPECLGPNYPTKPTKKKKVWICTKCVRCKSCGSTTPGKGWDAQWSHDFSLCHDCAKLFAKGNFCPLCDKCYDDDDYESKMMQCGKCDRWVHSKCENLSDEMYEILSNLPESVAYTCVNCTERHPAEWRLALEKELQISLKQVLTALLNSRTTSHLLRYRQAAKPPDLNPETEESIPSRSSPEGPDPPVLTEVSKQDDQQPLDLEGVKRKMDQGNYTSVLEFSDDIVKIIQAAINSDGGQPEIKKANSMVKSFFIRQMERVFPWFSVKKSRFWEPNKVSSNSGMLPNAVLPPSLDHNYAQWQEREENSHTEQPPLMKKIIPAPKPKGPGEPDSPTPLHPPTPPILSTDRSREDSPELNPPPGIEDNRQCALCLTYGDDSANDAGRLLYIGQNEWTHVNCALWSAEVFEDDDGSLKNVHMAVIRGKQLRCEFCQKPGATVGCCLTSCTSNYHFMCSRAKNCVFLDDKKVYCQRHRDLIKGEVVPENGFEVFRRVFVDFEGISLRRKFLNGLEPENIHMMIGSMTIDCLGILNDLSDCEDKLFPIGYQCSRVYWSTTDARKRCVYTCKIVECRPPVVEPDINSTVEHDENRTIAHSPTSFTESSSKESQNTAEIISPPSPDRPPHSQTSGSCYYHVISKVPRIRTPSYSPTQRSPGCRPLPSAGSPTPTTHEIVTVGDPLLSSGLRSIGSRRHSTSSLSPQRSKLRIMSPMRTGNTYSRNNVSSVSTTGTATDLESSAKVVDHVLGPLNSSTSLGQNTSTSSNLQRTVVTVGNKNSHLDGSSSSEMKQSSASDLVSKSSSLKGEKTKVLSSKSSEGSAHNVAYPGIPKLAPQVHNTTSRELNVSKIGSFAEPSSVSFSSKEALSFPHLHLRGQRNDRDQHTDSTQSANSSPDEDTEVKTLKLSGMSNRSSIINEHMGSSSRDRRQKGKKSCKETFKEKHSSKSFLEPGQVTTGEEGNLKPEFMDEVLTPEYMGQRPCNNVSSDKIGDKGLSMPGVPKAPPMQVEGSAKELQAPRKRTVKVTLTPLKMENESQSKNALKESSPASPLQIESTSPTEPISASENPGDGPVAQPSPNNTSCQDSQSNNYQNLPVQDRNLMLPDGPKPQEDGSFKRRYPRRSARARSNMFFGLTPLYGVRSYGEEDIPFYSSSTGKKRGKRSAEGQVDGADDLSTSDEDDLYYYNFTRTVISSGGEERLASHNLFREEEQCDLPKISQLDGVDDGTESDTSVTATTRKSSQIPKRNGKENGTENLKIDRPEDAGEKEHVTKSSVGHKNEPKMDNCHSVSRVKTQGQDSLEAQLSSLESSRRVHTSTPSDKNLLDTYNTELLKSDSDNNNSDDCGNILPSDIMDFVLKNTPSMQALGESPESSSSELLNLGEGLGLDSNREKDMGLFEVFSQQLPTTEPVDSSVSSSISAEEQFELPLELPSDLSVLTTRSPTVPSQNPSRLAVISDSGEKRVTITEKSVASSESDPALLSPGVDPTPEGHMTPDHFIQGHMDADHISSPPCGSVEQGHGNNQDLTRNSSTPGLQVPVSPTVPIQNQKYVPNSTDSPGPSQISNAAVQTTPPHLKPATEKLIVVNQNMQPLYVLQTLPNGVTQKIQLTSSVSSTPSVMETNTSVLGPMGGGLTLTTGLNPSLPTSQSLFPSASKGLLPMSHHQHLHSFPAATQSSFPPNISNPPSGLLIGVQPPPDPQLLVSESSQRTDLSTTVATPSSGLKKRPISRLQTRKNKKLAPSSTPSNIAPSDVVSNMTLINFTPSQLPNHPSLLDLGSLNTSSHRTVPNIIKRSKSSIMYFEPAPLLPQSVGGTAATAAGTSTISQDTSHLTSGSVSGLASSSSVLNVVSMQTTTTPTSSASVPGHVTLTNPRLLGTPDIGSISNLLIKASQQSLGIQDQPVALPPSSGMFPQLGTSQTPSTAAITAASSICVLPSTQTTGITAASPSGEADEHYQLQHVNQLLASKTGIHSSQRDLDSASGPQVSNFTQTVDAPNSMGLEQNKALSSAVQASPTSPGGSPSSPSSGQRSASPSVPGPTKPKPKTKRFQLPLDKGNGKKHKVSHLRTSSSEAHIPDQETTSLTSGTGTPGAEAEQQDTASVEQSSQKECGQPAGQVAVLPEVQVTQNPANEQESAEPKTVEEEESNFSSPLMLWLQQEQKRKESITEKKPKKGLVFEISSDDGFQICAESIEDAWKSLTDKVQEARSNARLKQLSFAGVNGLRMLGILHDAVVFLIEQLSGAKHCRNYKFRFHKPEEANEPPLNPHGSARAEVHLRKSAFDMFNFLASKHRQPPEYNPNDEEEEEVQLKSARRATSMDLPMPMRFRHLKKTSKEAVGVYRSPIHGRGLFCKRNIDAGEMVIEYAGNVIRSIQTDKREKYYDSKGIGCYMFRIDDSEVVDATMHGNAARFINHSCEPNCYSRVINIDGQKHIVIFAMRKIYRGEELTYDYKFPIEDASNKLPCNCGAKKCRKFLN

Target: Histone-lysine N-methyltransferase 2A (Homo sapiens) (UniProt Q03164)
Assay: qHTS Fluorescence Polarization Assay for Inhibitors of MLL CXXC domain - DNA interaction
Conditions: MLL-CXXC / FITC-HOXA9 DNA fluorescence polarization; activity change, negative = inhibition: at 115 µM (top of the series)
Method in brief: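 Purified MLL-CXXC (added from a 7 uM solution) was preincubated 5 min at ambient with pinned compounds in 50 mM Tris-HCl pH 7.5, 50 mM NaCl, 1 mM DTT, 0.05% BSA. Fluorescein-labeled HOX-A9 DNA (50 nM solution) followed, 30 min, then polarization read.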
Potency is read from the fitted curve at half-maximal effect.

| SMILES | Potency | activity change, negative = inhibition |
| --- | --- | --- |
| COc1ccc(CC(=O)NNC(=O)CCc2ccccc2)cc1OC | inconclusive: 44.7 µM [fluorescent, side channel, single point] | – |
| NS(=O)(=O)c1ccc(NC(=O)c2cc(-c3ccccc3O)n[nH]2)cc1 | inconclusive: 70.8 µM [fluorescent, side channel, single point] | – |
| CCn1c(SCC(=O)NCCOC)nc2sc3c(c2c1=O)CCCC3 | – | inactive: -0.611% |
| CCCCn1c(N)c(Sc2ccc(C)cc2)c(=O)[nH]c1=O | – | inactive: 3.72% |
| COc1cc(/C=C2/C(=O)NN(c3ccc(C)c(Cl)c3)C2=O)cc([N+](=O)[O-])c1O | inconclusive: 12.6 µM [inhibitor, full curve] | – |
| Nc1nonc1-n1nnc(C(=O)N/N=C/c2ccc(OCc3ccccc3F)cc2)c1CN1CCCCC1 | – | inactive: 4.29% |
| C/C(N)=C(/C#N)C(=O)CSc1cc(C)c2ccccc2n1 | inconclusive: 70.8 µM [fluorescent, side channel, single point] | – |
| COc1ccccc1N/C=C1/Sc2cc(Cl)ccc2NC1=O | inconclusive: 35.5 µM [fluorescent, side channel, partial curve] | – |
| COCCNC(=O)CN1CCC(NC(=O)c2ccco2)CC1 | inconclusive: 50.1 µM [fluorescent, side channel, partial curve] | – |
| O=C(Cn1cncn1)N/N=C/c1c2ccccc2cc2ccccc12 | inconclusive: 63.1 µM [fluorescent, side channel, single point] | – |
| CCCCCCOc1ccc(/C(C)=N/NC2=NCCN2)cc1 | inconclusive: 12.6 µM [quencher, side channel, partial curve] | – |
| COc1ccccc1OC(C)C(=O)O (centres undefined) | inconclusive: 15.8 µM [inhibitor, single point] | – |
| CCN1C(=NCCc2ccc(Br)cc2)N[C@@H](c2ccccc2)[C@H](C(=O)OC)[C@H]1C | inconclusive: 44.7 µM [quencher, side channel, single point] | – |
| Cc1ccc(-c2ccc(/C=C(\C#N)C(=O)Nc3cc(C)nn3-c3ccccc3)o2)cc1 | inconclusive: 39.8 µM [fluorescent, side channel, partial curve] | – |
| COc1ccc(CCC(=O)NCc2ccccc2Cl)cc1OC | inconclusive: 35.5 µM [fluorescent, side channel, partial curve] | – |
| CN1CCc2c(sc3nc(NCCO)n(-c4cccc(Cl)c4)c(=O)c23)C1 | inconclusive: 31.6 µM [fluorescent, side channel, partial curve] | – |
| CCOC(=O)/C(C#N)=C/c1c(N2CCN(C)CC2)nc2ccccn2c1=O | inconclusive: 28.2 µM [fluorescent, side channel, partial curve] | – |
| N=c1oc2ccccc2cc1C(=O)NCc1ccccc1 | inconclusive: 10 µM [quencher, side channel, single point] | – |
| CC(=O)c1cccc(NC(=S)NNC(=O)c2ccc(C)c([N+](=O)[O-])c2)c1 | inconclusive: 5.62 µM [quencher, side channel, partial curve] | – |
| O=C(COC(=O)/C=C/c1ccc(Cl)cc1Cl)Nc1ccc2c(c1)OCCO2 | inconclusive: 1.41 µM [inhibitor, full curve, poor fit] | – |

| SMILES | Potency | activity change, negative = inhibition |
| --- | --- | --- |
| NS(=O)(=O)c1cccc2c1c([N+](=O)[O-])cc1nc(O)c(O)nc12 | inconclusive: 56.2 µM [inhibitor, partial curve, poor fit] | – |
| COc1ccc(/C=C/C(=O)NCc2cn(C)nc2C)cc1COc1ccc(Cl)cc1Br | inconclusive: 31.6 µM [fluorescent, side channel, partial curve] | – |
| Cc1ccc(S(=O)(=O)N2CCN(CC(=O)N/N=C\C(Cl)=C\c3ccccc3)CC2)cc1 | – | inactive: -5.63% |
| CC(C)c1ccc2c(c1)C1(NN=C(c3ccccc3)S1)C(=O)N2 (centres undefined) | inconclusive: 89.1 µM [quencher, side channel, single point] | – |
| Cc1ccc(-c2ccc(S(=O)(=O)NCc3ccco3)cc2)cc1 | inconclusive: 0.891 µM [inhibitor, full curve, poor fit] | – |
| O=C(Nc1ccc(Cl)c(Cl)c1)Nc1ccon1 | inconclusive: 14.1 µM [quencher, side channel, single point] | – |
| CCCCN(C)C(=O)C1CCC(CNS(=O)(=O)c2ccc3c(c2)CC(C)N3C(C)=O)CC1 (centres undefined) | inconclusive: 11.2 µM [quencher, side channel, full curve, poor fit] | – |
| O=S1(=O)CCO[C@H]2Cc3ccccc3[C@H]2N1Cc1ccccc1 | – | inactive: -1.12% |
| CCOc1c(Br)cc(/C=C2\N=C(C)OC2=O)cc1Br | inconclusive: 20 µM [fluorescent, side channel, partial curve] | – |
| CNC(=O)c1csc(-c2ccc(Cl)cc2)n1 | – | inactive: -3.88% |
| COn1c(-c2ccc(Cl)cc2)nc2ccc(Cl)cc21 | inconclusive: 10 µM [quencher, side channel, single point] | – |
| CCN(CC)CCn1nc2c3c(cccc3c1=O)-c1ccccc1-2 | inconclusive: 15.8 µM [quencher, side channel, full curve, poor fit] | – |
| Cc1ccc(-c2[nH]ncc2C(=O)c2ccc(Br)cc2)c(O)c1 | inconclusive: 70.8 µM [fluorescent, side channel, single point] | – |
| CC(=O)N1CCN(c2ccc(NCc3cccs3)cc2)CC1 | – | inactive: -0.0096% |
| COc1ccc2nc3ccccc3nc2c1NC(=O)c1ccc(Cl)cc1 | inconclusive: 7.94 µM [inhibitor, single point] | – |
| Cc1onc(-c2c(F)cccc2Cl)c1C(=O)NCc1ccc2c(c1)OCO2 | – | inactive: 10.7% |
| CN(C)C(CNC(=O)c1ccc(Br)cc1)c1ccco1 (centres undefined) | inconclusive: 14.1 µM [fluorescent, side channel, single point] | – |
| C=C(C)Cn1c(CCNC(=O)C(C)C)nc2ccccc21 | – | inactive: 8.9% |
| CCCCNS(=O)(=O)c1ccc(NC(=O)C(Sc2ccccc2)c2ccccc2)cc1 (centres undefined) | inconclusive: 89.1 µM [quencher, side channel, single point] | – |

Full records, looked up by structure.
`CCCCn1c(N)c(Sc2ccc(C)cc2)c(=O)[nH]c1=O` as listed: activity change, negative = inhibition: inactive: 3.72%
`COc1ccc(CCC(=O)NCc2ccccc2Cl)cc1OC` as listed: Potency: inconclusive: 35.5 µM [fluorescent, side channel, partial curve]
